Laboratory results: the supplement of paper PMC10849652
Some of the results follow.

Sequences of proteins named here, by UniProt entry; tags and fusion partners are left off. A change or cut given only in a name is not applied to a line headed by its entry.
UniProt Q13077: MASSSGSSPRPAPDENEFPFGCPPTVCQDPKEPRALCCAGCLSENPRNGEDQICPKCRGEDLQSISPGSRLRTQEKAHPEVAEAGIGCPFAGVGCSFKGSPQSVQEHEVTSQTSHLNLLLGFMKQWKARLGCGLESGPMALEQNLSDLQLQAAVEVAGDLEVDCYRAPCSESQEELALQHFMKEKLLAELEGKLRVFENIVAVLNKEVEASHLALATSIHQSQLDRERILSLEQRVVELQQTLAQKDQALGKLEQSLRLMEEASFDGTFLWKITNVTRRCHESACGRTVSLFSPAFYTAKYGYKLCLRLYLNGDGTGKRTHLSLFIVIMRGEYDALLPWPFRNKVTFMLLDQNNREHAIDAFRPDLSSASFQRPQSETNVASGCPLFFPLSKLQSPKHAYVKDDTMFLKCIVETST
UniProt Q9ULT0: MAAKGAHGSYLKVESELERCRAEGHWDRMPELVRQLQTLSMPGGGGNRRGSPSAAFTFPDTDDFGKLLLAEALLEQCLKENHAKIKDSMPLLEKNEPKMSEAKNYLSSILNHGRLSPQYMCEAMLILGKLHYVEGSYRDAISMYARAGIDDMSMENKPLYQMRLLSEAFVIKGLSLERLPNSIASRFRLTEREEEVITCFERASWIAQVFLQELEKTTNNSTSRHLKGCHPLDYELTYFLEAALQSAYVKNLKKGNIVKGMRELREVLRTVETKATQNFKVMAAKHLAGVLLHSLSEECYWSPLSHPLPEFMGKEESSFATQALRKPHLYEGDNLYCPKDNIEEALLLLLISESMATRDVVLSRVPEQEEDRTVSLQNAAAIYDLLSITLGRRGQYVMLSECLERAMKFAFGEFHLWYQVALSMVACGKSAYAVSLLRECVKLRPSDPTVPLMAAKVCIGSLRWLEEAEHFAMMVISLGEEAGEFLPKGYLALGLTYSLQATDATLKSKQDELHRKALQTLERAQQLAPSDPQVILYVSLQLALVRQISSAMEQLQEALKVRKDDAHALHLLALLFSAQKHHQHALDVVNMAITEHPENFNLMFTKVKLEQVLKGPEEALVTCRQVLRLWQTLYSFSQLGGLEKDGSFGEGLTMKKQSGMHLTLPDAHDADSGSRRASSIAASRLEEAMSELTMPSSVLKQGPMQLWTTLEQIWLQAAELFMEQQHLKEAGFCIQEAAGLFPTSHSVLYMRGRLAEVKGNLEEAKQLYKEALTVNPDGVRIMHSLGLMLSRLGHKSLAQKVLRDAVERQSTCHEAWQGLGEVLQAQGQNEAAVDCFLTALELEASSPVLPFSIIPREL
UniProt Q96RU7: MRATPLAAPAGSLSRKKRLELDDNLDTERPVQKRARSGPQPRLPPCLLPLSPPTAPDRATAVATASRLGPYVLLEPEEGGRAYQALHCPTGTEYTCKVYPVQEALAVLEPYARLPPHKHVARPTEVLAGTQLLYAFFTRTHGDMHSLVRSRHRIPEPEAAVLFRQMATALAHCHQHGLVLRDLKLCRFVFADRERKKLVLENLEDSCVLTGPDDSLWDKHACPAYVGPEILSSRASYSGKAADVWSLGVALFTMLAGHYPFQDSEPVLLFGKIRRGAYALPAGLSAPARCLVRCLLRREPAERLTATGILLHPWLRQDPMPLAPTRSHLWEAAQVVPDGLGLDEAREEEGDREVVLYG
UniProt Q12899: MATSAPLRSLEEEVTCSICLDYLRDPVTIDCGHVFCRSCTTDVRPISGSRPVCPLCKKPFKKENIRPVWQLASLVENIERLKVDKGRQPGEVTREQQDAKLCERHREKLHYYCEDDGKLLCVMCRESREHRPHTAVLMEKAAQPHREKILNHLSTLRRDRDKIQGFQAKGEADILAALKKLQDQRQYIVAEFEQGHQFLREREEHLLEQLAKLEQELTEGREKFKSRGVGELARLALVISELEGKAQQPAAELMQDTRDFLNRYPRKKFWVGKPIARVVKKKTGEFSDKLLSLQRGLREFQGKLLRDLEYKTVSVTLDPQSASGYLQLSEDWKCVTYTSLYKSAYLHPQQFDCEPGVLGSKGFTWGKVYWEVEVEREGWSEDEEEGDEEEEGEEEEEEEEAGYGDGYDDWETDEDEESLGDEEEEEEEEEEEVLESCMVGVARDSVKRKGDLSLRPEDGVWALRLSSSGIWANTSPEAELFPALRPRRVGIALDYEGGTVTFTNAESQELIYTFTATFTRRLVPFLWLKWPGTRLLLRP
UniProt Q6AZZ1: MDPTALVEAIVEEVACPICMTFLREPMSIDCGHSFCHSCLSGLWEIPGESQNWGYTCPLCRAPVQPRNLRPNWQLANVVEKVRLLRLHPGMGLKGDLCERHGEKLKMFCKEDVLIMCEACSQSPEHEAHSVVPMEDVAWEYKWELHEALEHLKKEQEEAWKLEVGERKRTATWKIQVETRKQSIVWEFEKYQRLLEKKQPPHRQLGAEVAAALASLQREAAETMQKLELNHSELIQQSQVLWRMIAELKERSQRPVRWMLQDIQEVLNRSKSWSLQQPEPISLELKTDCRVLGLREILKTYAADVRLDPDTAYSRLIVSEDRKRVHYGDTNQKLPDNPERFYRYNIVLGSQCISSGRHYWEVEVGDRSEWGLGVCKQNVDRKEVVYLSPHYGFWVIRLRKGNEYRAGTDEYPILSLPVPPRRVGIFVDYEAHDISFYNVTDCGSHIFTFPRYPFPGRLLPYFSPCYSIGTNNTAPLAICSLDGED
UniProt Q8N831: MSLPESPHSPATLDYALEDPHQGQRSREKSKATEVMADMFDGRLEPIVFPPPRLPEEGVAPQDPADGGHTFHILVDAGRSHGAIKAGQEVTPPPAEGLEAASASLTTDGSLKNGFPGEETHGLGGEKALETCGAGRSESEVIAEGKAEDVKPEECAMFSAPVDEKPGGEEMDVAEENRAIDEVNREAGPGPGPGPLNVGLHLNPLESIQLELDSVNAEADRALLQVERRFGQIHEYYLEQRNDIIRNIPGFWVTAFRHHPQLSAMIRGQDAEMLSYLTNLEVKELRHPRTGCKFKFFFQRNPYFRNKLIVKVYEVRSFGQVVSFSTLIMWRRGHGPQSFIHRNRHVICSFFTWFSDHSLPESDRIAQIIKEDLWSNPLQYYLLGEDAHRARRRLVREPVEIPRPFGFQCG
UniProt Q96GJ1: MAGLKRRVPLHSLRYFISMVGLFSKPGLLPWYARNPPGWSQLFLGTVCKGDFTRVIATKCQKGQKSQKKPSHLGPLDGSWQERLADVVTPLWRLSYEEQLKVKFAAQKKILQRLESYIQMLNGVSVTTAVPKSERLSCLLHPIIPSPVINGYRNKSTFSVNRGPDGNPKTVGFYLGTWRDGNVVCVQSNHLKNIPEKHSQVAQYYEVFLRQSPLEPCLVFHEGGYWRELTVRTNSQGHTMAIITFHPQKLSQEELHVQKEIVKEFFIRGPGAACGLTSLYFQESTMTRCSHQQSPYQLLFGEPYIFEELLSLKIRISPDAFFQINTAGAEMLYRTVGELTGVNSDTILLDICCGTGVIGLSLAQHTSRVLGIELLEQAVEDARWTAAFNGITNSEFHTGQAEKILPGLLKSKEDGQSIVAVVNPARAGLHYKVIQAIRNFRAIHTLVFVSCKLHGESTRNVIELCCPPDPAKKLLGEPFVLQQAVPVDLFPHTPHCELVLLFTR
UniProt O00463: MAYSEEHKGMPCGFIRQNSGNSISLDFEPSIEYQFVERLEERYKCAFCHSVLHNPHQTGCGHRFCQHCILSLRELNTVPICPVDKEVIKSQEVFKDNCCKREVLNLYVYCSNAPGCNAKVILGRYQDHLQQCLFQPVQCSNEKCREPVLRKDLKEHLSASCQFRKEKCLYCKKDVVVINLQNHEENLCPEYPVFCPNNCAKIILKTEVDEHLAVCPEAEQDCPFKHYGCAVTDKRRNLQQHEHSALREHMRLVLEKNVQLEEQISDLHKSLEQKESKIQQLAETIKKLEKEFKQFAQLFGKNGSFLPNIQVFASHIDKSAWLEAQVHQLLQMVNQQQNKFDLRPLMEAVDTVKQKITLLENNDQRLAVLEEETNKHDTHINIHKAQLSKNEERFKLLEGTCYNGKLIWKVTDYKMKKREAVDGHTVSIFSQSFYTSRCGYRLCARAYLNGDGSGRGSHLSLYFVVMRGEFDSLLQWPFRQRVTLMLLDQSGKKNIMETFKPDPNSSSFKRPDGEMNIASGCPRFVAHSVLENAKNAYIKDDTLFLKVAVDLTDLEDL

Tests used:
Assay in all cases: log2 fold change, soluble protein after heating vs DMSO (PISA); higher = thermal stabilisation; K562 lysate, 10 uM; active = over 0.2 and 3.5 SD of the protein, either way, in both replicates (recomputed)
[1] = compound: C1=CC=C(C=C1)C2=NC(=C(N2)C3=CC=NC=C3)C4=CC(=C(C=C4)Cl)O
Method in brief: (§1)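 Soluble protein was defined as the supernatant remaining after 21,000xg for 90 min, following pooling of heated aliquots and adjustment to 0.5% NP-40 at 4°C. Before that, crude K562 extract at 1 mg/mL protein in PBS pH 7.4 with 1 mM MgCl2 was treated with 10 μM compound for 30 min and heated for 3 min across 48°C-58°C. Quantification used TMTpro 16plex LC-MS/MS with channel sums equalised, and values are log-two fold changes in thermal stability relative to solvent controls from duplicates.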

IRAK-1-4 Inhibitor I = compound: C1COCCN1CCN2C3=CC=CC=C3N=C2NC(=O)C4=CC(=CC=C4)[N+](=O)[O-] [IRAK-1-4 Inhibitor I]
Method in brief: as §1

ralimetinib = compound: CC(C)(C)Cn1c(N)nc2ccc(-c3[nH]c(C(C)(C)C)nc3-c3ccc(F)cc3)nc21 [ralimetinib]
Method in brief: as §1

[2] = compound: CC(C)(O)CC(=O)NCCn1ccc2ncnc(Nc3ccc(Oc4cccc(C(F)(F)F)c4)c(Cl)c3)c21
Method in brief: as §1

[3] = compound: CC1=C(C=C(C=C1)NC(=O)C2=CC(=CC=C2)N(C)C)NC(=O)C3=CC=C(C=C3)O
Method in brief: as §1

[4] = compound: CC1=C(C(CC(=O)N1)C2=CC=C(C=C2)C(F)(F)F)C(=O)NC3=C(C=C4C(=C3)C=NN4)F
Method in brief: as §1

erlotinib = compound: C#Cc1cccc(Nc2ncnc3cc(OCCOC)c(OCCOC)cc23)c1 [erlotinib]
Method in brief: as §1

[5] = compound: C1=CC(=CC=C1C2=NC3=C(N2)C=C(C=C3)C(=O)N)OC4=CC=C(C=C4)Cl
Method in brief: as §1

[6] = compound: C1CCN(C1)C(=O)NC2=CC=CC(=C2)NC3=NC=C(C(=N3)NCCC4=CN=CN4)Br
Method in brief: as §1

[7] = compound: C1CN(CCC1(CC2=CC=C(C=C2)Cl)N)C3=NC=NC4=C3C=CN4
Method in brief: as §1

[8] = compound: CC(C)C1=C2N=C(C=C(N2N=C1)NCC3=CC=CC=C3)NCCCCCCN
Method in brief: as §1

[9] = compound: CC1=C(C2=C(C=C1)C(=O)C3=CC=CC=C3N2CCCN)C
Method in brief: as §1

[10] = compound: CC(=O)c1cnc2ccc(-c3cc(Cl)c(O)c(Cl)c3)nc2c1N[C@H]1CC[C@H](CN(C)C)CC1
Method in brief: as §1

[11] = compound: CC1=C(C=C(C=C1)NC(=O)C2=CC(=CC=C2)C(C)(C)C#N)NC3=CC4=C(C=C3)N=CN(C4=O)C
Method in brief: as §1

[12] = compound: CC1=CC=C(C=C1)SC2=C3C=C(SC3=CN=C2)C(=O)N
Method in brief: as §1

[13] = compound: C1=CC2=NC=CN=C2C=C1/C=C/3\C(=O)NC(=O)S3
Method in brief: as §1

ibrutinib = compound: C=CC(=O)N1CCC[C@@H](n2nc(-c3ccc(Oc4ccccc4)cc3)c3c(N)ncnc32)C1 [ibrutinib]
Method in brief: as §1

Measured: log2 fold change

TRAF1 (UniProt Q13077)
inactive: [1] -0.058 | IRAK-1-4 Inhibitor I 0.593 | ralimetinib 0.17 | [2] 0.148 | [3] -0.326

TTC7A isoform 4 (UniProt Q9ULT0)
inactive: [4] 0.257

TRIB3 (UniProt Q96RU7)
inactive: erlotinib -0.236 | [5] 0.048 | [6] -0.112 | [7] 0.065 | [8] -0.009 | [9] 0.053

TRIM26 (UniProt Q12899)
inactive: [1] -0.114 | IRAK-1-4 Inhibitor I 0.145 | [10] -0.254 | ralimetinib -0.091 | [2] 0.116 | [4] 0.056 | [11] 0.048 | [3] -0.09 | [12] 0.203

TRIM68 (UniProt Q6AZZ1)
inactive: erlotinib 0.065 | [5] -0.026 | [6] -0.272 | [7] -0.055 | [8] -0.027 | [4] -0.124 | [11] 0.109

TRIM16 (UniProt O95361)
inactive: erlotinib 0.033 | [5] 0.035 | [6] -0.028 | [7] -0.231 | [8] 0.04 | [9] -0.007

Two successive entries from above, for reference:
TRIB3 (UniProt Q96RU7)
inactive: erlotinib -0.236 | [5] 0.048 | [6] -0.112 | [7] 0.065 | [8] -0.009 | [9] 0.053

TRIM26 (UniProt Q12899)
inactive: [1] -0.114 | IRAK-1-4 Inhibitor I 0.145 | [10] -0.254 | ralimetinib -0.091 | [2] 0.116 | [4] 0.056 | [11] 0.048 | [3] -0.09 | [12] 0.203

(continued)

TSPYL6 (UniProt Q8N831)
inactive: erlotinib 0.114 | [5] -0.034 | [1] 0.15 | IRAK-1-4 Inhibitor I -0.063 | ralimetinib 0.118 | [2] -0.134 | [8] -0.013 | [9] -0.019 | [3] 0.023

TRMT2B (UniProt Q96GJ1)
inactive: erlotinib -0.036 | [5] -0.037 | [13] -0.063 | [1] -0.053 | IRAK-1-4 Inhibitor I -0.01 | ibrutinib -0.001 | [10] -0.28 | ralimetinib 0.062 | [2] 0.003 | [8] -0.033 | [4] 0.014 | [9] -0.037 | [11] -0.054 | [3] -0.004 | [12] -0.108

TRAF5 isoform 2 (UniProt O00463)
inactive: erlotinib 0.092 | [5] 0.127 | [1] 0.122 | [6] 0.106 | [7] -0.029 | IRAK-1-4 Inhibitor I 0.177 | ralimetinib -0.219 | [2] -0.296 | [8] 0.08 | [3] 0.053
